Consider 1 substance from paper PMC6992704.

Protein sequences, listed by entry. Tags and fused reporters are not part of them.
UniProt Q07157: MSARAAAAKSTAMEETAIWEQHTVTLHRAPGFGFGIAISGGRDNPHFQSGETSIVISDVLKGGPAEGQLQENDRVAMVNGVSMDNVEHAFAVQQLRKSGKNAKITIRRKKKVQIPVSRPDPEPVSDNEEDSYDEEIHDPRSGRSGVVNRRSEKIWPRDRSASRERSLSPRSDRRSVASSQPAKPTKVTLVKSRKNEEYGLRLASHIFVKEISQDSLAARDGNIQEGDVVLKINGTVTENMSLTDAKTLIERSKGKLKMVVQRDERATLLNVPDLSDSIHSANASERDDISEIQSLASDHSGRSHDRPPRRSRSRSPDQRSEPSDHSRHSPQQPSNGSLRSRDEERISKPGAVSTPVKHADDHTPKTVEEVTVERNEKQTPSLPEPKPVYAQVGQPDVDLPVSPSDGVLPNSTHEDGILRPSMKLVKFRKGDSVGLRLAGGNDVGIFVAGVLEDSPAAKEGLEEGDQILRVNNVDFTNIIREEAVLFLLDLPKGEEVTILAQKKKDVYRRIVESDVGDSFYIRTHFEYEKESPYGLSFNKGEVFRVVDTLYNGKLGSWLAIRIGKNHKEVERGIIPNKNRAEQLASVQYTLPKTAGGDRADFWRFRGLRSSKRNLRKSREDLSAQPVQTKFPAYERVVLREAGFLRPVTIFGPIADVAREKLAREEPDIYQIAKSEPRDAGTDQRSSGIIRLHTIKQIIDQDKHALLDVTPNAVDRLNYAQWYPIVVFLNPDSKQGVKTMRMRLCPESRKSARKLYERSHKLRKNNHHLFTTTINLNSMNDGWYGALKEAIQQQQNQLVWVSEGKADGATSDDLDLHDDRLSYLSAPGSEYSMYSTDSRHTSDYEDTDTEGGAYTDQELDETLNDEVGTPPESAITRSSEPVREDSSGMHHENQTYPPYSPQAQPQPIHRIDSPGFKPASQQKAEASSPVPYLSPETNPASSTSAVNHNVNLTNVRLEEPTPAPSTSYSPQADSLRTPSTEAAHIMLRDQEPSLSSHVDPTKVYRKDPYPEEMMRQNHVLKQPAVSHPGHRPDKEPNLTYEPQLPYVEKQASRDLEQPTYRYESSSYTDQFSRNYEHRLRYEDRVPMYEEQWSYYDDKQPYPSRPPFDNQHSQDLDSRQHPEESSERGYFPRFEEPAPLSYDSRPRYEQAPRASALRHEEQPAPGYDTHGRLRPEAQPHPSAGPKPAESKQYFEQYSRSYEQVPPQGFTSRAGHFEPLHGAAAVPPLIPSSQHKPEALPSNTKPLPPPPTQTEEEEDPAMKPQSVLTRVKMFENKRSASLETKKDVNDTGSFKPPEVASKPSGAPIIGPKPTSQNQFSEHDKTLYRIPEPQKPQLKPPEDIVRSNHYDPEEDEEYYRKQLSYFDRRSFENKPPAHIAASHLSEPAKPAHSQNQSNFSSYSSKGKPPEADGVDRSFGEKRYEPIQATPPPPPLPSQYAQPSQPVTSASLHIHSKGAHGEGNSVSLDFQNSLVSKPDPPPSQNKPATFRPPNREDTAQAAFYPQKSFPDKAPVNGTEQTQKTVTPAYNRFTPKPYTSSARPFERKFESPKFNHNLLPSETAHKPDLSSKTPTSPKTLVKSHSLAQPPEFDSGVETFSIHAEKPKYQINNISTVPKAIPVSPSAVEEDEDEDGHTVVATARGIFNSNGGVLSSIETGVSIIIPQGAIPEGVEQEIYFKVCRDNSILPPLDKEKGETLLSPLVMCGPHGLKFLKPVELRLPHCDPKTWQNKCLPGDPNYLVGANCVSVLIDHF
UniProt O35973: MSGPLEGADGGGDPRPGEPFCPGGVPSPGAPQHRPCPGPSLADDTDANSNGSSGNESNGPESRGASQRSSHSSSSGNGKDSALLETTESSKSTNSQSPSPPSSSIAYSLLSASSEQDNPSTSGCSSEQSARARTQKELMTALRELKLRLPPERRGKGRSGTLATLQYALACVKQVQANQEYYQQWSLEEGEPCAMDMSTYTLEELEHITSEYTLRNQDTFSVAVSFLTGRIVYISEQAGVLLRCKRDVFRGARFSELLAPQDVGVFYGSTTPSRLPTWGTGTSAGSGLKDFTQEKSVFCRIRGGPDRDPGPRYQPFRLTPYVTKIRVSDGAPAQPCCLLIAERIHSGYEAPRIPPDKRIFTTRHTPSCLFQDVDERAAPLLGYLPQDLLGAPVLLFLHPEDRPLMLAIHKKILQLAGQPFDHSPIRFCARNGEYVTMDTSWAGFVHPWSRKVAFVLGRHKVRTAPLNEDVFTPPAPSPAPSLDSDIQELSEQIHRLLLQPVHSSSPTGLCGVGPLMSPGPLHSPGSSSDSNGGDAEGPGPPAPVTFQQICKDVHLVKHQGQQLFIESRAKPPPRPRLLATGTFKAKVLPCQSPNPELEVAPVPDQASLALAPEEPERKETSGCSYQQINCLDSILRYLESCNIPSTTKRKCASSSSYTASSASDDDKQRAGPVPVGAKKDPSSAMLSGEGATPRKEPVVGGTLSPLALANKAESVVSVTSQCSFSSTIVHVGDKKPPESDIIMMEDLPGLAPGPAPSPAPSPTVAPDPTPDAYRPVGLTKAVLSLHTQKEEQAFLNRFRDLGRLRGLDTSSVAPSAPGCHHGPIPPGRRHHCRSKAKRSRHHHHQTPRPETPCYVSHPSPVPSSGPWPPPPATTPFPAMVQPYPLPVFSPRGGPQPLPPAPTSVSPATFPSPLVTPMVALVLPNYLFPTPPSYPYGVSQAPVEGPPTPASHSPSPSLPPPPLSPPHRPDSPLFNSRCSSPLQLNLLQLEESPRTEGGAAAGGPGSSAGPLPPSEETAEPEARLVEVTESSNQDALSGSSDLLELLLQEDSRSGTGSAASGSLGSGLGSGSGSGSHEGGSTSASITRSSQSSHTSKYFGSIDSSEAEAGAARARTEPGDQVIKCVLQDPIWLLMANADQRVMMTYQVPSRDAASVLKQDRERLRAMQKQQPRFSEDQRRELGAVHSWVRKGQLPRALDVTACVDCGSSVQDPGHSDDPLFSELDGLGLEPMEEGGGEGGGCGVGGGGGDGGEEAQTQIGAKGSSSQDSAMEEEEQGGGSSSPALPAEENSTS

No constants are given. Whether binding was seen depends on the method and setting. In cells and extracts the contact can be indirect. A yes stands for co-enrichment or nearness to the bait. Other partners may have been found.

For this experiment, the target named is HA-tagged TJP1 (tight junction protein 1), adenoviral (human) (UniProt Q07157). In words: affinity purification with mass spectrometry; immunoprecipitates of TJP1 from mouse primary hepatocytes cultured in a collagen sandwich (methods: hepatocytes infected with HA-TJP1 adenovirus; results: endogenous TJP1); electrospray ionization tandem MS, Thermo LTQ Orbitrap.

Consider “endogenous PER1 (period circadian regulator 1) (from UniProt O35973 1-1291)”, for which the binding entry is given as “binds”.
